No constants are given. Whether binding was seen depends on the method and setting. For part of these data: In cells and extracts the contact can be indirect. Some results given as binding are weak or reduced against the parent protein; the word gives no strength. For part of these data: Sequences can lack the tags named with a protein.
T1: myc-tagged SORLA 3Fn mini-receptor (human) (UniProt Q92673)
T1 sequence: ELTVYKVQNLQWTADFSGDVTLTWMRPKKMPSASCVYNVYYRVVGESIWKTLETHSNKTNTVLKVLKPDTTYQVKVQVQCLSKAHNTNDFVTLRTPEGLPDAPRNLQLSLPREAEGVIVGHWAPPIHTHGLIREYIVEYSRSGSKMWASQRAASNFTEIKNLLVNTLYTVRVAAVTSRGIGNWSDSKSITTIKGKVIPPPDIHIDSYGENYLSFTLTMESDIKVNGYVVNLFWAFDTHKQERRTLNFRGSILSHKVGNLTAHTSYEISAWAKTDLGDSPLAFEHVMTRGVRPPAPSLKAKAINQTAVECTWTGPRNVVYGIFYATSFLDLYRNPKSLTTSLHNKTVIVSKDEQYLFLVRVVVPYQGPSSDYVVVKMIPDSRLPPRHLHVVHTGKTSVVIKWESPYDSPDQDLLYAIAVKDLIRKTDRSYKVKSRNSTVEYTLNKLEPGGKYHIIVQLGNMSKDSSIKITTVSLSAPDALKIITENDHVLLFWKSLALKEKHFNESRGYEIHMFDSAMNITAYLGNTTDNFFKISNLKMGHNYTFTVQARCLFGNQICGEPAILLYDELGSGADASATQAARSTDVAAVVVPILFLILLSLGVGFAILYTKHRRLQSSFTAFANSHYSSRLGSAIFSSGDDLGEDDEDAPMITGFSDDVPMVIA

B1: FLAG-tagged SORLA 3Fn mini-receptor (receptor)
chain: DYKDHDGDYKDHDIDYKDDDDKELTVYKVQNLQWTADFSGDVTLTWMRPKKMPSASCVYNVYYRVVGESIWKTLETHSNKTNTVLKVLKPDTTYQVKVQVQCLSKAHNTNDFVTLRTPEGLPDAPRNLQLSLPREAEGVIVGHWAPPIHTHGLIREYIVEYSRSGSKMWASQRAASNFTEIKNLLVNTLYTVRVAAVTSRGIGNWSDSKSITTIKGKVIPPPDIHIDSYGENYLSFTLTMESDIKVNGYVVNLFWAFDTHKQERRTLNFRGSILSHKVGNLTAHTSYEISAWAKTDLGDSPLAFEHVMTRGVRPPAPSLKAKAINQTAVECTWTGPRNVVYGIFYATSFLDLYRNPKSLTTSLHNKTVIVSKDEQYLFLVRVVVPYQGPSSDYVVVKMIPDSRLPPRHLHVVHTGKTSVVIKWESPYDSPDQDLLYAIAVKDLIRKTDRSYKVKSRNSTVEYTLNKLEPGGKYHIIVQLGNMSKDSSIKITTVSLSAPDALKIITENDHVLLFWKSLALKEKHFNESRGYEIHMFDSAMNITAYLGNTTDNFFKISNLKMGHNYTFTVQARCLFGNQICGEPAILLYDELGSGADASATQAARSTDVAAVVVPILFLILLSLGVGFAILYTKHRRLQSSFTAFANSHYSSRLGSAIFSSGDDLGEDDEDAPMITGFSDDVPMVIA
B2: soluble 3Fn minireceptor with six 3Fn-domains (receptor)
chain: DYKDHDGDYKDHDIDYKDDDDKELTVYKVQNLQWTADFSGDVTLTWMRPKKMPSASCVYNVYYRVVGESIWKTLETHSNKTNTVLKVLKPDTTYQVKVQVQCLSKAHNTNDFVTLRTPEGLPDAPRNLQLSLPREAEGVIVGHWAPPIHTHGLIREYIVEYSRSGSKMWASQRAASNFTEIKNLLVNTLYTVRVAAVTSRGIGNWSDSKSITTIKGKVIPPPDIHIDSYGENYLSFTLTMESDIKVNGYVVNLFWAFDTHKQERRTLNFRGSILSHKVGNLTAHTSYEISAWAKTDLGDSPLAFEHVMTRGVRPPAPSLKAKAINQTAVECTWTGPRNVVYGIFYATSFLDLYRNPKSLTTSLHNKTVIVSKDEQYLFLVRVVVPYQGPSSDYVVVKMIPDSRLPPRHLHVVHTGKTSVVIKWESPYDSPDQDLLYAIAVKDLIRKTDRSYKVKSRNSTVEYTLNKLEPGGKYHIIVQLGNMSKDSSIKITTVSLSAPDALKIITENDHVLLFWKSLALKEKHFNESRGYEIHMFDSAMNITAYLGNTTDNFFKISNLKMGHNYTFTVQARCLFGNQICGEPAILLYDELGS

How the values were obtained:
[1] = molecular target: full-length SORLA (human) (UniProt Q92673); test: co-immunoprecipitation with anti-FLAG, WB with polyclonal anti-SORLA, lysates of co-transfected HEK293 cells
[2] = molecular target: T1, myc-tagged SORLA 3Fn mini-receptor (human); test: co-immunoprecipitation with anti-FLAG, WB anti-myc, lysates of co-transfected HEK293 cells
[3] = molecular target: soluble 3Fn minireceptor with six 3Fn-domains (human) (UniProt Q92673); test: WB (anti-FLAG) after SDS-PAGE without reducing agent, transfected CHO cells

Binder | binding [1] | binding [2] | binding [3]
B1 | binds | binds | 
B2 |  |  | binds
